According to PubChem BioAssay AID2685 (National Center for Advancing Translational Sciences (NCATS), 2010):
Some of the results follow. The main result of the screen is listed elsewhere. These columns were measured beside it and carry no call. Compounds called inactive in the main read-out are mostly missing here. Words in brackets tell the shape of the fitted curve; partial curves, single points and poor fits give uncertain potencies.

Test: qHTS Assay for Lipid Storage Modulators in Drosophila S3 Cells;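 for cell number change: cells counted by Cell Tracker Red CMTPX staining in the red channel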
Details: BODIPY lipid droplet fluorescence, 18-24 h; for cell number change: measured here: cell count max response, cells fed with added oleic acid
Summary of the method: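 Laser-scanning cytometry quantifies lipid droplet accumulation (500–530 nm total intensity; droplet/cell object ratio) in oleic acid-fed (400 uM added) Drosophila S3 cells treated with a concentration series. 20 uM Triacsin C defined 100% inhibition.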

[1] = measured here: lipid fluorescence (Fed channel) AC50, cells fed with added oleic acid
[2] = measured here: cell number channel AC50, cells fed with added oleic acid

| SMILES | cell number change [%] | AC50 [1] | AC50 [2] |
| --- | --- | --- | --- |
| COc1ccc(-c2c(-c3cc(OC)cc(OC)c3)n(C)c3ccc(-c4ccc(OC)cc4F)cc23)cc1 | 20.6 | 0.184 µM [rising, full curve, poor fit] |  |
| CC(C)c1ccc(C(C(=O)NC2CCCC2)N(C(=O)CNC(=O)c2ccco2)c2cccnc2)cc1 (configuration not stated) | 0.546 | 1.64 µM [rising, full curve, poor fit] |  |
| Cn1ncc(Cl)c1C(=O)N1CCN(c2ncccn2)CC1 | -50.6 |  | 2.06 µM [falling, partial curve, poor fit] |
| N#Cc1c2c(c(NCc3cccnc3)n3c1nc1ccccc13)CCC2 |  |  | 0.103 µM [rising, full curve, poor fit] |
| COc1ccccc1C(=O)OCCN1CCOCC1 | 0.932 | 0.651 µM [falling, full curve] |  |
| CCN(CC)CCCn1c(SCC(=O)Nc2cccc(F)c2)nnc1-c1ccoc1C | 10.8 | 0.58 µM [falling, single point] |  |
| O=S(=O)(NCCc1ccccc1)c1cnc(Cl)c(Br)c1 | -17.7 | 6.51 µM [falling, single point] |  |
| O=C(CN(c1ccccc1Cl)S(=O)(=O)c1ccccc1)NCc1ccccc1 |  | 0.58 µM [rising, single point] |  |
| Cc1noc(C)c1CSCC(=O)Nc1nnc(CC(C)C)s1 | 33.5 | 1.03 µM [rising, partial curve] |  |
| NC(=O)CC(NC(=O)c1ccccc1)c1ccc(NCCN2CCCCC2)c([N+](=O)[O-])c1 (configuration not stated) | 9.71 | 0.58 µM [rising, single point] |  |
| Cc1ccc(C2NC(=O)Cc3ccccc32)cc1 (configuration not stated) |  | 6.51 µM [falling, single point] | 6.51 µM [falling, single point] |
| C#CCOc1c(Br)cc(/C=C2/C(=O)ON=C2C)cc1OC |  |  | 4.11 µM [rising, single point] |
| Cc1nc2ccccc2n1C(=O)c1cc(-c2ccc(Br)cc2)nc2ccccc12 | 5.41 | 29.1 µM [rising, single point] |  |
| CC(=O)OCC1=C[C@@H]2OC(=O)C3=CO[C@@H](O[C@@H]4O[C@H](CO)[C@@H](O)[C@H](O)[C@H]4O)[C@H]1[C@@H]32 | -5.63 | 0.58 µM [rising, partial curve] | 1.03 µM [falling, single point] |
| CCCc1cc(NC(=O)COC(=O)c2nccnc2N)n(-c2ccccc2)n1 | -20 | 0.116 µM [falling, full curve, poor fit] |  |
| COc1ccc(CNC(=O)CNC(=O)c2cccs2)c(OC)c1 | 5.7 | 0.58 µM [rising, partial curve, poor fit] |  |
| C=CCOc1ccc(/C=N/NC(=O)CN(c2cc(Cl)ccc2OC)S(=O)(=O)c2ccc(C)c([N+](=O)[O-])c2)cc1 | 20.5 | 4.11 µM [rising, partial curve, poor fit] |  |
| Cc1nc2c(O)cccc2cc1CO | -35.2 |  | 16.4 µM [falling, single point] |
| CN(C)c1nc(N(C)C)n(Cc2c(Cl)cccc2Cl)n1 | -2.71 |  | 4.11 µM [rising, partial curve] |
| Cc1ccc(S(=O)(=O)N2c3ccccc3NC(=O)CC2C)cc1 (configuration not stated) | -32 | 6.51 µM [falling, single point] | 4.11 µM [falling, partial curve, poor fit] |

| SMILES | cell number change [%] | AC50 [1] | AC50 [2] |
| --- | --- | --- | --- |
| CC1=C(C(=O)OC2CCC(C)CC2)C(c2ccc(O)c([N+](=O)[O-])c2)NC(=O)N1 (configuration not stated) | -8.8 | 29.1 µM [falling, single point] |  |
| COc1ccc(S(=O)(=O)Nc2nc3ccccc3nc2NCC2CCCO2)cc1 (configuration not stated) | 17 | 16.4 µM [rising, partial curve, poor fit] |  |
| Cn1c(SCC(=O)O)nnc1C1CCCCC1 | -17.3 | 23.1 µM [falling, partial curve] |  |
| CCN1CCc2c(C#N)c(N3CCOCC3)nc(NCc3ccccc3)c2C1 | 227 |  | 29.1 µM [rising, single point] |
| Cc1cc(C)c2nc(NC(=O)[C@@H](NC(=O)c3cccc(S(=O)(=O)N4CCOCC4)c3)C(C)C)sc2c1 | -41.9 | 20.6 µM [falling, single point] | 10.3 µM [falling, partial curve, poor fit] |
| Cc1nn(C)c(C)c1CCC(=O)NC1CC(C)(C)Cc2c1cnn2-c1ccccc1 (configuration not stated) | 2.7 | 29.1 µM [falling, single point] |  |
| Fc1ccc(Br)cc1/C=N/n1cnnc1 | 8.51 | 0.731 µM [rising, partial curve] |  |
| Cc1nccn1CCC(=O)Nc1ccc(Cl)cc1 |  | 18.4 µM [rising, single point] |  |
| Cc1cc(NC(=O)COC(=O)CSCc2ccc(Cl)c(Cl)c2)no1 | 2.66 | 20.6 µM [falling, partial curve, poor fit] |  |
| CC1c2ccsc2CCN1S(=O)(=O)c1cccs1 (configuration not stated) | 14.3 | 29.1 µM [rising, single point] |  |
| O=C(/C=C/c1ccc([N+](=O)[O-])s1)N1CCCC1 | -37.7 |  |  |
| CCOCCCNC(=O)c1ccc(CS(=O)(=O)Cc2ccc(C)cc2)o1 | -3.5 |  |  |
| Cc1ccc2nc(SC(C(=O)c3ccccc3)c3ccccc3)nc(C)c2c1 (configuration not stated) | 38.5 | 23.1 µM [rising, single point] | 29.1 µM [rising, single point] |
| CCOC(=O)Cc1csc(-n2sc3ccccc3c2=O)n1 | -67.8 | 18.4 µM [falling, partial curve] | 25.9 µM [falling, partial curve] |
| CC1=C(C#N)C(/C=N/OCc2ccc(Cl)cc2)CC(=O)N1 (configuration not stated) | 100 |  | 5.8 µM [rising, full curve] |
| CCOC(=O)C1CCCN(c2c(NCCc3cccc(C)c3)c(=O)c2=O)C1 (configuration not stated) | -6.3 |  |  |
| COc1cc(/C=N\Nc2ccc([N+](=O)[O-])cn2)ccc1OCC(=O)O | -20.3 | 23.1 µM [falling, single point] | 3.66 µM [rising, single point] |
| Cc1ccc(S(=O)(=O)c2c(N)n(CCC(C)C)c3nc4ccccc4nc23)cc1 | -24.4 |  |  |
| COC(=O)c1ccccc1NC(=O)COc1ccccc1 | -0.153 | 0.731 µM [rising, single point] |  |

| SMILES | cell number change [%] | AC50 [1] | AC50 [2] |
| --- | --- | --- | --- |
| C/C(N)=C(/C#N)C(=O)CSc1ccccc1F | 58.6 |  |  |
| COCCNC(=O)C1CC(c2ccc(F)cc2)=NO1 (configuration not stated) |  | 0.00461 µM [falling, full curve, poor fit] |  |
| COc1ccc2cc(C(=O)C3CCCN(C(=O)Cc4c(C)noc4C)C3)ccc2c1 (configuration not stated) | -26.3 | 10.3 µM [falling, partial curve] |  |
| Cc1ccc(NCC(=O)N/N=C\c2ccc([N+](=O)[O-])o2)cc1 | -11.1 | 20.6 µM [falling, partial curve] |  |
| Cc1cc(C(=O)NN)c(C)o1 | -11.2 | 1.3 µM [falling, full curve, poor fit] |  |
| Cn1c(=O)[nH]c(=O)c2c1nc(N1CCN(C(c3ccccc3)c3ccccc3)CC1)n2CCO |  |  | 6.51 µM [rising, single point] |
| Cc1ccc(C)c(N2CCN(C(=O)C3CCCN(S(=O)(=O)c4c(C)[nH]c(=O)[nH]c4=O)C3)CC2)c1 (configuration not stated) | 31.4 |  | 14.6 µM [rising, single point] |
| COc1ccc(N(CC(=O)NCc2ccc(C)cc2)S(=O)(=O)c2c(C)[nH]c(=O)[nH]c2=O)cc1 | -10.1 |  |  |
| CCOC(=O)/C(C#N)=C/Nc1ccccc1NS(=O)(=O)c1cccc(C(C)=O)c1 | 37.1 |  | 0.231 µM [rising, full curve, poor fit] |
| CCN(c1ccccc1)S(=O)(=O)c1ccc2c(c1)C(C)(C)C(=O)N2C | 5.19 | 32.6 µM [falling, single point] |  |
| CCNC(=S)N/N=C/c1c(Cl)cccc1Cl | -53.7 | 25.9 µM [falling, single point] | 16.4 µM [falling, single point] |
| COc1ccc(CC(=O)NNS(=O)(=O)c2ccc(F)cc2)cc1OC | -11.8 | 6.51 µM [falling, single point] |  |
| CCN(Cc1cccs1)C(=O)c1cccc(S(=O)(=O)N2CCN(C)CC2)c1 | 2.96 |  |  |
| COc1ccc(/C=C/C(=O)NC(=S)Nc2ccc(S(=O)(=O)Nc3cc(OC)ncn3)cc2)cc1 | -3.45 | 0.259 µM [falling, partial curve, poor fit] |  |
| O=C(Nc1nc(-c2ccco2)c(-c2ccco2)s1)c1c(F)cccc1Cl | -31.4 |  | 29.1 µM [falling, single point] |
| COc1ccc(C2/C(=C(/O)c3ccccc3)C(=O)C(=O)N2c2ccccn2)cc1 (configuration not stated) | 6.74 | 6.51 µM [rising, partial curve, poor fit] |  |
| CCn1c(C(=O)O)c(CC(=O)NC2CCCCCC2)c2ccccc21 |  | 14.6 µM [rising, partial curve] |  |
| Cn1nc(Cc2n[nH]c(=S)n2C)c2ccccc2c1=O | -0.551 | 0.103 µM [rising, full curve, poor fit] |  |
| COC1=C(Nc2ccc(C)cc2)C(=O)c2ccccc2C1=O | -75.1 | 29.1 µM [falling, single point] | 20.6 µM [falling, partial curve, poor fit] |

Copied from the list:
AC50 [1], CCn1c(C(=O)O)c(CC(=O)NC2CCCCCC2)c2ccccc21 reads 14.6 µM [rising, partial curve]
cell number change [%], COc1ccc(N(CC(=O)NCc2ccc(C)cc2)S(=O)(=O)c2c(C)[nH]c(=O)[nH]c2=O)cc1 reads -10.1
